From PubChem BioAssay AID2417 (National Center for Advancing Translational Sciences (NCATS), 2010)
Among all 140,000 compounds or so, about 4,300 (3.1%) were called active. Inconclusive results, whose numbers are uncertain, are shown with a selection of clear calls.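 The calls were made as follows: active = readout at or below -70, meaning at least 70% loss of cells showing the perinucleolar compartment, a nuclear body marking cancer cells; inconclusive = readout between -30 and a set limit; inactive = the rest.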

Experiment: High Content Assay for Compounds that inhibit the Assembly of the Perinucleolar Compartment;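 also: plate controls were DMSO wells for no effect and camptothecin positive control wells for full effect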
Conditions: PC3M PTB-GFP, PNC prevalence imaging, 16 h; at 10 µM; hits give low values
Procedure, shortened: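 Read-out is percentage of cells bearing a perinucleolar compartment, from automated 20x imaging of fixed, Hoechst-stained PC3M PTB-GFP cells. Cells were seeded 4 h, then exposed 16 h to compound (23 nl of library stock) in duplicate plates.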

SMILES	activity change (PNC), negative = inhibition
Cn1c(=O)oc2cc(S(=O)(=O)N3CCN(c4ccccc4)CC3)ccc21	inconclusive: -46.4%
Cc1ncsc1C(=O)N1N=C2/C(=C/c3ccc(N4CCOCC4)cc3)CCCC2C1c1ccc(N2CCOCC2)cc1 (stereo not given)	inconclusive: -42%
CNC(=O)c1c(N)sc2c1CCCCC2	inconclusive: -64.4%
O=C(Nc1cccc(Cl)c1)C1C2CCC3C(CCC21)C3(Cl)Cl (stereo not given)	inconclusive: -35.6%
O=C(c1cc2ccccc2oc1=O)N(c1ccc(Cl)cc1)C1C=CS(=O)(=O)C1 (stereo not given)	inconclusive: -45.9%
CC(NS(=O)(=O)c1cccc(S(=O)(=O)c2ccccc2)c1)C(=O)O (stereo not given)	inactive: -4.39%
CC(=O)Nc1cc(NC(=O)CCCC(=O)O)ccc1Cl	inconclusive: -45%
CC(Oc1ccc(F)cc1)C(=O)Nc1sc2c(c1C(=O)NCc1cccnc1)CCCC2 (stereo not given)	inconclusive: -31.2%
COc1ccc(NC(=O)COC(=O)Cc2ccc(-c3ccccc3)cc2)c(OC)c1	inconclusive: -67.7%
COc1cc(/C=C(\C#N)C(N)=O)ccc1OS(=O)(=O)c1ccc(C)cc1	inactive: -15.5%
c1cn(CCCNC2=NCCCCC2)cn1	inconclusive: -43.6%
Cc1cccc(NC(=O)N2CCC(c3nc4ccccc4o3)CC2)c1	inconclusive: -49%
Cc1ccc(OCCN2C(=O)NC3(CCc4ccccc4C3)C2=O)cc1 (stereo not given)	inconclusive: -49.9%
COc1cc(CC(=O)NCc2ccco2)cc(OC)c1OC	inactive: 37.3%
CCNc1nc(NCC)nc(SCCOC(=O)COc2ccc(Cl)cc2Cl)n1	inactive: -28.1%
Cc1ccc(NC(=O)CCC(=O)NNC(=O)c2ccco2)c(C)c1	inconclusive: -36.2%
COc1ccc(Nc2nc3ccccc3nc2NS(=O)(=O)c2cccs2)cc1	inconclusive: -32%
CN(C)S(=O)(=O)c1ccc2c(c1)c(=O)c(C(=O)N1CCOCC1)cn2C	inconclusive: -52%
Cc1cc(C)c2c(n1)nn1c(NCCN3CCOCC3)cc(C)nc21	inconclusive: -55.1%
COc1ccc(C)cc1C1=Nc2ccccc2C1(C)C	inconclusive: -34.8%
COC(=O)C1=C(O)/C(=C\c2ccc(O)c(OC)c2)N=C1C	inactive: -21.6%
CC(/C=N/NC(=O)c1cc(-c2ccncc2)nc2ccccc12)=C\c1ccco1	active: -87.1%
O=C(CCCOc1ccc(Cl)cc1Cl)n1nnc2ccccc21	inconclusive: -41.2%
Cc1ccccc1NC(=O)c1ccccc1NC(=O)CCC(=O)O	active: -109%
O=C(O)c1ccc(NC(=O)c2cccs2)cc1	active: -100%

Given with each value named: part of the list above.
CC(NS(=O)(=O)c1cccc(S(=O)(=O)c2ccccc2)c1)C(=O)O (stereo not given)
  activity change (PNC), negative = inhibition: inactive: -4.39%
Cc1ccccc1NC(=O)c1ccccc1NC(=O)CCC(=O)O
  activity change (PNC), negative = inhibition: active: -109%
